We go through two molecules from publication PMC3266917.

The experiment has as its target T1, Flag-FBXO6 WT (human F-box protein 6) (human) (UniProt Q9NRD1).
T1 sequence: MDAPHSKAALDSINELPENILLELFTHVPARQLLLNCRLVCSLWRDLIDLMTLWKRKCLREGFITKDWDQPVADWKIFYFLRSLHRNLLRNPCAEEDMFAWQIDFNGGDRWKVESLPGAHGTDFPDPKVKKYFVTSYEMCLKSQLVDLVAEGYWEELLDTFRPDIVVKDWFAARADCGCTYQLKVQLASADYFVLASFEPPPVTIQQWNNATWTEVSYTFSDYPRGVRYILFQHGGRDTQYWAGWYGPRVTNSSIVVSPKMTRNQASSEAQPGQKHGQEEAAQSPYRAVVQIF
The experiment is described as follows: co-IP; lysate of 293T cells transfected with Flag-FBXO6 WT or Null (50 mM Tris-HCl pH 7.5, 150 mM NaCl, 0.5% Nonidet P40); anti-FLAG M2 affinity resin overnight at 4°C; eluted with 3×Flag-peptide; immunoblot.

Results are given in words; binding and its absence hold for the method and conditions named. Binding seen in cells or lysates may run through a third protein. Some entries that bind do so weakly or less than the wild type. Tags and fused reporters may be left off the sequences shown.

B1: RPN1 (Ribophorin-1) (protein, UniProt P04843 24-607)
chain: ASSEAPPLINEDVKRTVDLSSHLAKVTAEVVLAHLGGGSTSRATSFLLALEPELEARLAHLGVQVKGEDEEENNLEVRETKIKGKSGRFFTVKLPVALDPGAKISVIVETVYTHVLHPYPTQITQSEKQFVVFEGNHYFYSPYPTKTQTMRVKLASRNVESYTKLGNPTRSEDLLDYGPFRDVPAYSQDTFKVHYENNSPFLTITSMTRVIEVSHWGNIAVEENVDLKHTGAVLKGPFSRYDYQRQPDSGISSIRSFKTILPAAAQDVYYRDEIGNVSTSHLLILDDSVEMEIRPRFPLFGGWKTHYIVGYNLPSYEYLYNLGDQYALKMRFVDHVFDEQVIDSLTVKIILPEGAKNIEIDSPYEISRAPDELHYTYLDTFGRPVIVAYKKNLVEQHIQDIVVHYTFNKVLMLQEPLLVVAAFYILFFTVIIYVRLDFSITKDPAAEARMKVACITEQVLTLVNKRIGLYRHFDETVNRYKQSRDISTLNSGKKSLETEHKALTSEIALLQSRLKTEGSDLCDRVSEMQKLDAQVKELVLKSAVEAERLVAGKLKKDTYIENEKLISGKRQELVTKIDHILDAL
On to B1, for which the binding entry is listed as “binds”.

B2: DDOST (Oligosaccharyl transferase 48 kDa subunit) (protein, UniProt P39656 43-456)
chain: SGPRTLVLLDNLNVRETHSLFFRSLKDRGFELTFKTADDPSLSLIKYGEFLYDNLIIFSPSVEDFGGNINVETISAFIDGGGSVLVAASSDIGDPLRELGSECGIEFDEEKTAVIDHHNYDISDLGQHTLIVADTENLLKAPTIVGKSSLNPILFRGVGMVADPDNPLVLDILTGSSTSYSFFPDKPITQYPHAVGKNTLLIAGLQARNNARVIFSGSLDFFSDSFFNSAVQKAAPGSQRYSQTGNYELAVALSRWVFKEEGVLRVGPVSHHRVGETAPPNAYTVTDLVEYSIVIQQLSNGKWVPFDGDDIQLEFVRIDPFVRTFLKKKGGKYSVQFKLPDVYGVFQFKVDYNRLGYTHLYSSTQVSVRPLQHTQYERFIPSAYPYYASAFSMMLGLFIFSIVFLHMKEKEKSD
As to B2, the binding result is “binds”.
